Assay results reported in PMC12989817.

Amino acid sequences for entries named in this document (tags omitted). Residues count along the entry.
UniProt P22001, residues 53-572: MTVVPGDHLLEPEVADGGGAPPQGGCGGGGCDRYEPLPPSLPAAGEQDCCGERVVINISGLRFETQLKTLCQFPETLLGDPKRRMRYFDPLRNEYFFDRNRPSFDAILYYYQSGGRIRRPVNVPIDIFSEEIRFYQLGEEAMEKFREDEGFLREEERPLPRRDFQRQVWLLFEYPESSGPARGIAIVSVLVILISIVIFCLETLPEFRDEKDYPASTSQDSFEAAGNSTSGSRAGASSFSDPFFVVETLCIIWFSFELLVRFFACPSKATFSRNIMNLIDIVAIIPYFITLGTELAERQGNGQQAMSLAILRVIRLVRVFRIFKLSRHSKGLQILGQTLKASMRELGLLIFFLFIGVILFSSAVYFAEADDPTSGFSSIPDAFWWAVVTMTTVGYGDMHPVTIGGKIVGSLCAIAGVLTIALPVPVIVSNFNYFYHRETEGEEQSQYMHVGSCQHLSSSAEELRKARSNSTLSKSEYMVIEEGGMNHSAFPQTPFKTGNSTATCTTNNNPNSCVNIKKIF
UniProt P10619, residues 29-480: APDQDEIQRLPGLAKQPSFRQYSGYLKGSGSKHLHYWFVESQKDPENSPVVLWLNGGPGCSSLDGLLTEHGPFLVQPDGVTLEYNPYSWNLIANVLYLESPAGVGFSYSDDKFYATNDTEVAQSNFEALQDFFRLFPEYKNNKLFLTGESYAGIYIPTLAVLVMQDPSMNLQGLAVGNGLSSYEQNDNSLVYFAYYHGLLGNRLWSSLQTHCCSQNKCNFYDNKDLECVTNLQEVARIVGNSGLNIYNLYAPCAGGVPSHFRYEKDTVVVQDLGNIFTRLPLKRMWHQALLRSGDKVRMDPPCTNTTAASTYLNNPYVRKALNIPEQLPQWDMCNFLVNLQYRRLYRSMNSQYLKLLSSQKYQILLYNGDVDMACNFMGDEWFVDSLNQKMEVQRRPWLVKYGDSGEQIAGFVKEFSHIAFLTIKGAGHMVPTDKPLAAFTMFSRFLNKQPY
UniProt Q13574: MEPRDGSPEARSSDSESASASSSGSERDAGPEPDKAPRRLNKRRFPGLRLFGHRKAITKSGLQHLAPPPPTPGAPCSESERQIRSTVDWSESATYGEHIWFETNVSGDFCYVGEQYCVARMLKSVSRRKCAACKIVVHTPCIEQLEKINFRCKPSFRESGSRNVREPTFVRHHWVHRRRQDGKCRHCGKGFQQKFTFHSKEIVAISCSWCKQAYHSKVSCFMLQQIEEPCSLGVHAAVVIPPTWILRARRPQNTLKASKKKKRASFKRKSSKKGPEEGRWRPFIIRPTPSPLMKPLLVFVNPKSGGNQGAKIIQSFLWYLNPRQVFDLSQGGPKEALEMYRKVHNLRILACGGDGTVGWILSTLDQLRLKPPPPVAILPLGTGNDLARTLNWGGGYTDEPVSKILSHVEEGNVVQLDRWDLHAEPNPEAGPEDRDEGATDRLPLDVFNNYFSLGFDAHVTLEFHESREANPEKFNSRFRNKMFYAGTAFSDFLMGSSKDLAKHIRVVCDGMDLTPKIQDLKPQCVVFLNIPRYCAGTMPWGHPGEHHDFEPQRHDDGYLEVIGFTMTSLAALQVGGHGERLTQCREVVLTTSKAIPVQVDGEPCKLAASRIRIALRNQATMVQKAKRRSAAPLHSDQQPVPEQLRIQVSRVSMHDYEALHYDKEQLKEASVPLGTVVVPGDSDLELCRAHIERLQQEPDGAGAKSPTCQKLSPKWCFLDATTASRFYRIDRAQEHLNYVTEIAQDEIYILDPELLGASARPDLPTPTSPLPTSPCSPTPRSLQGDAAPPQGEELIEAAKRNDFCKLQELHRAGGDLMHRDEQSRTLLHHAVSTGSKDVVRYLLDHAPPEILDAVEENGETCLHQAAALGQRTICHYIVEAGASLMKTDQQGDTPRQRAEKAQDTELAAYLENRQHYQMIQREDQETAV
UniProt P06241: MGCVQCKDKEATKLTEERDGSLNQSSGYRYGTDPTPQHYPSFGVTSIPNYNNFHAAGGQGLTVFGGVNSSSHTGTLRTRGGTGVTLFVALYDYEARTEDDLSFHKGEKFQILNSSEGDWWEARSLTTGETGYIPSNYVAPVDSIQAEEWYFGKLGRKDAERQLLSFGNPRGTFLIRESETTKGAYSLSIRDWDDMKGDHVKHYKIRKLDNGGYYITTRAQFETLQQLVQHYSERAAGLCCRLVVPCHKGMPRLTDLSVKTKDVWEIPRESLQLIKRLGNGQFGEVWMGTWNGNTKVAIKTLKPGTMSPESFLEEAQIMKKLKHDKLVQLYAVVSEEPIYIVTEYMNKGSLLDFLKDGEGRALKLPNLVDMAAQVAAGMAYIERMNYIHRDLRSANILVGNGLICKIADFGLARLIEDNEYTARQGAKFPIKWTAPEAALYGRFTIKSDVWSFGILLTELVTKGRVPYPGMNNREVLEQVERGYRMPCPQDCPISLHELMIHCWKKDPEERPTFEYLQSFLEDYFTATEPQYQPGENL
UniProt Q96RL7: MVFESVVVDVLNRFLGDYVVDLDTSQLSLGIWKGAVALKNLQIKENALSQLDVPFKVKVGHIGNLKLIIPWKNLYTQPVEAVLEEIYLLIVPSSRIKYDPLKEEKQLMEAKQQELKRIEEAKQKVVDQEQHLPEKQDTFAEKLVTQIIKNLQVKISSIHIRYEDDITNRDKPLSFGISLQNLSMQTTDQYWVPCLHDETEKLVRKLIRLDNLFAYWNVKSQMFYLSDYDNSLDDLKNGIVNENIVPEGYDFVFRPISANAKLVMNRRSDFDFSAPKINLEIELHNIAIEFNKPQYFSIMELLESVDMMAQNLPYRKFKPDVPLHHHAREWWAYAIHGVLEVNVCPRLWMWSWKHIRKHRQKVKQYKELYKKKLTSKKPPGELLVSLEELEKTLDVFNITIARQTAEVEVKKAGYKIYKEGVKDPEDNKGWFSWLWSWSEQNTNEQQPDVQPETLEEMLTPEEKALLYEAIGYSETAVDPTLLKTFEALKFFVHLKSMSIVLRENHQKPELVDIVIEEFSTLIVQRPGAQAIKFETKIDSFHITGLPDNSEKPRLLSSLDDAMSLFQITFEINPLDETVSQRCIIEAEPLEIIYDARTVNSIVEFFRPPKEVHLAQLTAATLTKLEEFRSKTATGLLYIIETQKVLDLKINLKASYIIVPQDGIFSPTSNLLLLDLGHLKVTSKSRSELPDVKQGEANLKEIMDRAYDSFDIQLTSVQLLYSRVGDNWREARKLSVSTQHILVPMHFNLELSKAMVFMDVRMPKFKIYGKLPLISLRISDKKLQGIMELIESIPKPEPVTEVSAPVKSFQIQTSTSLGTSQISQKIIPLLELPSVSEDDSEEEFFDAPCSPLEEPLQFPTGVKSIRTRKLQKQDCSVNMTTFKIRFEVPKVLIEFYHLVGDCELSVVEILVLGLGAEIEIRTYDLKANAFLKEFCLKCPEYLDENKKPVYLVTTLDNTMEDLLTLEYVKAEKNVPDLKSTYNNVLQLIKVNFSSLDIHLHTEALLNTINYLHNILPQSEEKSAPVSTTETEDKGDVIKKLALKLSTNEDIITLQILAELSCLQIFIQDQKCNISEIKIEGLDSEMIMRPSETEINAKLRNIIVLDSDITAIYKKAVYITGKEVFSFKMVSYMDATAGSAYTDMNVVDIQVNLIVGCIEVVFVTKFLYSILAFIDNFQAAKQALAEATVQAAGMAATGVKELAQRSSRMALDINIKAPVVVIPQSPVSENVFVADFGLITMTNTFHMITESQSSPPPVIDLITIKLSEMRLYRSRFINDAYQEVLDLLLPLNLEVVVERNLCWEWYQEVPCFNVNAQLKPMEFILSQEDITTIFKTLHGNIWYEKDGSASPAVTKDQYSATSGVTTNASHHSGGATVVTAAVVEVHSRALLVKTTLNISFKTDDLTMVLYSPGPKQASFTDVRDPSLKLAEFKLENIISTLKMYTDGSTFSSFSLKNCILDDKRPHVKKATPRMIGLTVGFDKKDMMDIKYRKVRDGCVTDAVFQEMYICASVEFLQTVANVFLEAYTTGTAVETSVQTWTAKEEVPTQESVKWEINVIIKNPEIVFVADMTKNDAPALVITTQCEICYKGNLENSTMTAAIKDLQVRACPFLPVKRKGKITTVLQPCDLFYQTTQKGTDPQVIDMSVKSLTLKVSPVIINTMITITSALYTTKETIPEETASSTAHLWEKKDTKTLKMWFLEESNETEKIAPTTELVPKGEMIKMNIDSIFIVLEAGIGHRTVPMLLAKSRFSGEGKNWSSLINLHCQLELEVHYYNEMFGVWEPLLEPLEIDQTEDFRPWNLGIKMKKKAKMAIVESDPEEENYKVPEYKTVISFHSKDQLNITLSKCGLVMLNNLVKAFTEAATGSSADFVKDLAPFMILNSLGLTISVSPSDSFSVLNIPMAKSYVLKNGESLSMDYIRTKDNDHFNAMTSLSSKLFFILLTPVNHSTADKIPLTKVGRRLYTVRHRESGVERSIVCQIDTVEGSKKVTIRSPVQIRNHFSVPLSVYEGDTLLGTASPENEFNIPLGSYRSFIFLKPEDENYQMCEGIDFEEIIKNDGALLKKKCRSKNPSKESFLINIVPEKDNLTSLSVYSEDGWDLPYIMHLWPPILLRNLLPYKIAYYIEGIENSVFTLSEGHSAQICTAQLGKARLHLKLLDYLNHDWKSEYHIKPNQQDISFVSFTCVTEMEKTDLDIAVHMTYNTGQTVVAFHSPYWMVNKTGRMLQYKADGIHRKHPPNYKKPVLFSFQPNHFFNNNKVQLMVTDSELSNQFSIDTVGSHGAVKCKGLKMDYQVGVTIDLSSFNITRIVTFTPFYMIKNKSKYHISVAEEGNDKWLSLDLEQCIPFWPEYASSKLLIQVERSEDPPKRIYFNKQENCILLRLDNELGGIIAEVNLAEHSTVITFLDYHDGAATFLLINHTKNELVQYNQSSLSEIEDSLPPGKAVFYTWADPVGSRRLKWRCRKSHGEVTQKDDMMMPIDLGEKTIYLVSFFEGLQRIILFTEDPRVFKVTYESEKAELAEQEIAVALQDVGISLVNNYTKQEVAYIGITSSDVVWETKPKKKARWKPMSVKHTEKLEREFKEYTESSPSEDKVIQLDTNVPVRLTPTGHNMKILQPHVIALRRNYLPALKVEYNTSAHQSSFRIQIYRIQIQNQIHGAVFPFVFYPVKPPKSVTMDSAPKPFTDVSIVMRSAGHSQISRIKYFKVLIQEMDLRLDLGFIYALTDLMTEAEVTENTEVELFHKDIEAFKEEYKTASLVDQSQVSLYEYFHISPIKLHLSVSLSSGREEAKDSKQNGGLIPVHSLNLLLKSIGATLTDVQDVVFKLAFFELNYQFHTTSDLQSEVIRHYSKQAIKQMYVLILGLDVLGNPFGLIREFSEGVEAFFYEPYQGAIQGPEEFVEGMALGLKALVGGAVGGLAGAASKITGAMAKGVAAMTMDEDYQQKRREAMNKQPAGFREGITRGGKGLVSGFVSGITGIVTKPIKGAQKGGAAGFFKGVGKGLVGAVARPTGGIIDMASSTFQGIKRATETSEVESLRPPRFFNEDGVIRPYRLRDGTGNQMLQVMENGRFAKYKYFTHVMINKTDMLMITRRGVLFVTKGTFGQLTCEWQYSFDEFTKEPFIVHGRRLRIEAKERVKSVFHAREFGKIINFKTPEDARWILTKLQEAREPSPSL
UniProt Q969M3: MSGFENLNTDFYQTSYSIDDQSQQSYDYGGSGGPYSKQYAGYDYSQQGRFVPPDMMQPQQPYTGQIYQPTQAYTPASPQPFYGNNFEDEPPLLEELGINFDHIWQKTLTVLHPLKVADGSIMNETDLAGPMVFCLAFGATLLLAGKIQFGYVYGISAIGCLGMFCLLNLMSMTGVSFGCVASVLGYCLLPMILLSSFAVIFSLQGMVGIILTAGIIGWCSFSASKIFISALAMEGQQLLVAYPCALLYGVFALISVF

B1: TMX1 (protein, UniProt Q9H3N1 27-280)
chain: RRSNVRVITDENWRELLEGDWMIEFYAPWCPACQNLQPEWESFAEWGEDLEVNIAKVDVTEQPGLSGRFIITALPTIYHCKDGEFRRYQGPRTKKDFINFISDKEWKSIEPVSSWFGPGSVLMSSMSALFQLSMWIRTCHNYFIEDLGLPVWGSYTVFALATLFSGLLLGLCMIFVADCLCPSKRRRPQPYPYPSKKLLSESAQPLKKVEEEQEADEEDVSEEEAESKEGTNKDFPQNAIRQRSLGPSLATDKS
B2: SART1 (protein, UniProt O43290 1-800)
chain: MGSSKKHRGEKEAAGTTAAAGTGGATEQPPRHREHKKHKHRSGGSGGSGGERRKRSRERGGERGSGRRGAEAEARSSTHGRERSQAEPSERRVKREKRDDGYEAAASSKTSSGDASSLSIEETNKLRAKLGLKPLEVNAIKKEAGTKEEPVTADVINPMALRQREELREKLAAAKEKRLLNQKLGKIKTLGEDDPWLDDTAAWIERSRQLQKEKDLAEKRAKLLEEMDQEFGVSTLVEEEFGQRRQDLYSARDLQGLTVEHAIDSFREGETMILTLKDKGVLQEEEDVLVNVNLVDKERAEKNVELRKKKPDYLPYAEDESVDDLAQQKPRSILSKYDEELEGERPHSFRLEQGGTADGLRERELEEIRAKLRLQAQSLSTVGPRLASEYLTPEEMVTFKKTKRRVKKIRKKEKEVVVRADDLLPLGDQTQDGDFGSRLRGRGRRRVSEVEEEKEPVPQPLPSDDTRVENMDISDEEEGGAPPPGSPQVLEEDEAELELQKQLEKGRRLRQLQQLQQLRDSGEKVVEIVKKLESRQRGWEEDEDPERKGAIVFNATSEFCRTLGEIPTYGLAGNREEQEELMDFERDEERSANGGSESDGEENIGWSTVNLDEEKQQQDFSASSTTILDEEPIVNRGLAAALLLCQNKGLLETTVQKVARVKAPNKSLPSAVYCIEDKMAIDDKYSRREEYRGFTQDFKEKDGYKPDVKIEYVDETGRKLTPKEAFRQLSHRFHGKGSGKMKTERRMKKLDEEALLKKMSSSDTPLGTVALLQEKQKAQKTPYIVLSGSGKSMNANTITK
B3: TMPO (protein, UniProt P42166 1-694)
chain: MPEFLEDPSVLTKDKLKSELVANNVTLPAGEQRKDVYVQLYLQHLTARNRPPLPAGTNSKGPPDFSSDEEREPTPVLGSGAAAAGRSRAAVGRKATKKTDKPRQEDKDDLDVTELTNEDLLDQLVKYGVNPGPIVGTTRKLYEKKLLKLREQGTESRSSTPLPTISSSAENTRQNGSNDSDRYSDNEEGKKKEHKKVKSTRDIVPFSELGTTPSGGGFFQGISFPEISTRPPLGSTELQAAKKVHTSKGDLPREPLVATNLPGRGQLQKLASERNLFISCKSSHDRCLEKSSSSSSQPEHSAMLVSTAASPSLIKETTTGYYKDIVENICGREKSGIQPLCPERSHISDQSPLSSKRKALEESESSQLISPPLAQAIRDYVNSLLVQGGVGSLPGTSNSMPPLDVENIQKRIDQSKFQETEFLSPPRKVPRLSEKSVEERDSGSFVAFQNIPGSELMSSFAKTVVSHSLTTLGLEVAKQSQHDKIDASELSFPFHESILKVIEEEWQQVDRQLPSLACKYPVSSREATQILSVPKVDDEILGFISEATPLGGIQAASTESCNQQLDLALCRAYEAAASALQIATHTAFVAKAMQADISQAAQILSSDPSRTHQALGILSKTYDAASYICEAAFDEVKMAAHTMGNATVGRRYLWLKDCKINLASKNKLASTPFKGGTLFGGEVCKVIKKRGNKH
B4: CDS2 (protein, UniProt O95674 1-445)
chain: MTELRQRVAHEPVAPPEDKESESEAKVDGETASDSESRAESAPLPVSADDTPEVLNRALSNLSSRWKNWWVRGILTLAMIAFFFIIIYLGPMVLMIIVMCVQIKCFHEIITIGYNVYHSYDLPWFRTLSWYFLLCVNYFFYGETVTDYFFTLVQREEPLRILSKYHRFISFTLYLIGFCMFVLSLVKKHYRLQFYMFGWTHVTLLIVVTQSHLVIHNLFEGMIWFIVPISCVICNDIMAYMFGFFFGRTPLIKLSPKKTWEGFIGGFFATVVFGLLLSYVMSGYRCFVCPVEYNNDTNSFTVDCEPSDLFRLQEYNIPGVIQSVIGWKTVRMYPFQIHSIALSTFASLIGPFGGFFASGFKRAFKIKDFANTIPGHGGIMDRFDCQYLMATFVNVYIASFIRGPNPSKLIQQFLTLRPDQQLHIFNTLRSHLIDKGMLTSTTEDE
B5: HTATSF1 (protein, UniProt O43719 1-755)
chain: MSGTNLDGNDEFDEQLRMQELYGDGKDGDTQTDAGGEPDSLGQQPTDTPYEWDLDKKAWFPKITEDFIATYQANYGFSNDGASSSTANVEDVHARTAEEPPQEKAPEPTDARKKGEKRKAESGWFHVEEDRNTNVYVSGLPPDITVDEFIQLMSKFGIIMRDPQTEEFKVKLYKDNQGNLKGDGLCCYLKRESVELALKLLDEDEIRGYKLHVEVAKFQLKGEYDASKKKKKCKDYKKKLSMQQKQLDWRPERRAGPSRMRHERVVIIKNMFHPMDFEDDPLVLNEIREDLRVECSKFGQIRKLLLFDRHPDGVASVSFRDPEEADYCIQTLDGRWFGGRQITAQAWDGTTDYQVEETSREREERLRGWEAFLNAPEANRGLRRSDSVSASERAGPSRARHFSEHPSTSKMNAQETATGMAFEEPIDEKKFEKTEDGGEFEEGASENNAKESSPEKEAEEGCPEKESEEGCPKRGFEGSCSQKESEEGNPVRGSEEDSPKKESKKKTLKNDCEENGLAKESEDDLNKESEEEVGPTKESEEDDSEKESDEDCSEKQSEDGSEREFEENGLEKDLDEEGSEKELHENVLDKELEENDSENSEFEDDGSEKVLDEEGSEREFDEDSDEKEEEEDTYEKVFDDESDEKEDEEYADEKGLEAADKKAEEGDADEKLFEESDDKEDEDADGKEVEDADEKLFEDDDSNEKLFDEEEDSSEKLFDDSDERGTLGGFGSVEEGPLSTGSSFILSSDDDDDDI
B6: STX18 (protein, UniProt Q9P2W9 1-335)
chain: MAVDITLLFRASVKTVKTRNKALGVAVGGGVDGSRDELFRRSPRPKGDFSSRAREVISHIGKLRDFLLEHRKDYINAYSHTMSEYGRMTDTERDQIDQDAQIFMRTCSEAIQQLRTEAHKEIHSQQVKEHRTAVLDFIEDYLKRVCKLYSEQRAIRVKRVVDKKRLSKLEPEPNTKTRESTSSEKVSQSPSKDSEENPATEERPEKILAETQPELGTWGDGKGEDELSPEEIQMFEQENQRLIGEMNSLFDEVRQIEGRVVEISRLQEIFTEKVLQQEAEIDSIHQLVVGATENIKEGNEDIREAIKNNAGFRVWILFFLVMCSFSLLFLDWYDS

biological target: N-terminal Kv1.3-TurboID (V5-TurboID-Kv1.3 fusion) (human) (UniProt P22001); assay: proximity labelling; TurboID fused to Kv1.3, stably expressed in Jurkat T-cells; 200 μM biotin for 1 h; lysis in 8 M urea; biotinylated proteins enriched on streptavidin magnetic beads; label-free quantitative MS against untransduced Jurkat T-cells or between lines (>4-fold, p<0.05; n=3)

binding, binds:
B1
B2
B3
B4
B5

biological target: Kv1.3-TurboID C-terminal fusion with the PDZ-binding domain removed (human) (UniProt P22001); assay: as above

binding, binds:
Cathepsin A (from UniProt P10619 29-480)
DGKZ (from UniProt Q13574 1-928)
FYN (from UniProt P06241 1-537)
MEN1 (from UniProt O00255 1-610)
VPS13A (from UniProt Q96RL7 1-3174)
YIPF5 (from UniProt Q969M3 1-257)
B6

No constants are given. Whether binding was seen depends on the method and setting. Binding seen in cells or lysates may run through a third protein. These calls come from enrichment with a bait or labelling near it, and not all partners need be listed.
